Laboratory results published in patent US7067489B2, “Hematopoietic stimulation” (Point Therapeutics, Inc., priority 1998, dated 2006).
For at least one compound, name, drawing or mass did not settle the structure.

Test system: cyclophosphamide treated mice
Assay: Regeneration of neutrophils in cyclophosphamide-treated mice
Type: in vivo
Details: 5 consecutive days from Day 3 post cyclophosphamide
Description: In these studies, mice were injected intraperitoneally with a sublethal dose of 220 mg/kg cyclophosphamide (Day 1). […] After 72 hours (Day 3) mice were divided into 3 groups. […] G-CSF was used at 0.04 ug/dose (4 μg/kg/day) which is the dose frequently used in published reports studying the G-CSF effects in mice and is also the equivalent dose used in cancer patients. All administrations were performed twice daily (b.i.d.) for 5 consecutive days or as indicated. Blood samples were taken from individual mice on Day 4–8, and in some experiments on Days 13 or 17. At each time pont four or five test animals were sampled. Total and differential white blood cell counts of Gimsa-stained blood smears were performed.

## CC(C)[C@H](N)C(=O)N1CCC[C@H]1B(O)O [PT-100, valine-prolineboronic acid]
2 μg/b.i.d. oral gavage
  recovery of neutrophils preceding recovery of saline treated mice: 1 or 2
5 μg/b.i.d. oral gavage
  recovery of neutrophils preceding recovery of saline treated mice: 1 or 2
